# Results published in the supplement of paper PMC10849652.
# The chains behind the UniProt entries cited, without tags or fusion partners. Where a name states a change or a piece, a line headed by the entry shows the natural chain unless it says otherwise.
# UniProt P03915, whole entry, looked up: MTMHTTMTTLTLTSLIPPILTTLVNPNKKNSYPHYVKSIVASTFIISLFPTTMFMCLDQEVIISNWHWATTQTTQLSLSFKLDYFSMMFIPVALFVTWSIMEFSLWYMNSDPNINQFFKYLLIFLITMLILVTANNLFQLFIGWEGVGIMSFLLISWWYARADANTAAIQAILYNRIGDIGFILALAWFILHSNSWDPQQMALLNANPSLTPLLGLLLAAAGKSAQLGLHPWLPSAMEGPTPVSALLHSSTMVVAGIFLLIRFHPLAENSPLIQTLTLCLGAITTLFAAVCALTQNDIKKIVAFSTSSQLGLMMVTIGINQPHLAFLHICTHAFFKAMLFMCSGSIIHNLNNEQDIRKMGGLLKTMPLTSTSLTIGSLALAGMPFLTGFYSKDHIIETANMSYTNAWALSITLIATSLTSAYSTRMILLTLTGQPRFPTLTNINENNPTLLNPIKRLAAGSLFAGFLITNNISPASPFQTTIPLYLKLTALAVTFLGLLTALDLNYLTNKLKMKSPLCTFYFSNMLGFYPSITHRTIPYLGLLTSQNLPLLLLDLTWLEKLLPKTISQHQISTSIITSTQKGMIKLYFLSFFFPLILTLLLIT
# UniProt P42898: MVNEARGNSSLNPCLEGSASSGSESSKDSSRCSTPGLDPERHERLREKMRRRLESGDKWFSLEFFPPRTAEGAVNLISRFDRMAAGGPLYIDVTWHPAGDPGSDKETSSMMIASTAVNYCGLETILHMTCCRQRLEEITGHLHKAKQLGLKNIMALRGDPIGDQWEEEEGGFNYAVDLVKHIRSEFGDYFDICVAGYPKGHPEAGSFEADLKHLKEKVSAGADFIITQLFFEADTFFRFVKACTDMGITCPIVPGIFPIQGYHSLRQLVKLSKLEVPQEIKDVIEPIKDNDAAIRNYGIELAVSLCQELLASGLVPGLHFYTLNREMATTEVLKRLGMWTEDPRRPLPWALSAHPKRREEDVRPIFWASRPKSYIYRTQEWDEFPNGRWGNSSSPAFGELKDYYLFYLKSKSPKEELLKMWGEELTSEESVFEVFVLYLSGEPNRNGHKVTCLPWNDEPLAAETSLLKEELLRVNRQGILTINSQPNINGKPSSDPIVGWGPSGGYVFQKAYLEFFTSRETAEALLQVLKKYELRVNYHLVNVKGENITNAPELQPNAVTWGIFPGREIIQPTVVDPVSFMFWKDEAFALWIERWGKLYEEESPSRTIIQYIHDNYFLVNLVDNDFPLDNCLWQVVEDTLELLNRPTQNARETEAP
# UniProt Q68DK7: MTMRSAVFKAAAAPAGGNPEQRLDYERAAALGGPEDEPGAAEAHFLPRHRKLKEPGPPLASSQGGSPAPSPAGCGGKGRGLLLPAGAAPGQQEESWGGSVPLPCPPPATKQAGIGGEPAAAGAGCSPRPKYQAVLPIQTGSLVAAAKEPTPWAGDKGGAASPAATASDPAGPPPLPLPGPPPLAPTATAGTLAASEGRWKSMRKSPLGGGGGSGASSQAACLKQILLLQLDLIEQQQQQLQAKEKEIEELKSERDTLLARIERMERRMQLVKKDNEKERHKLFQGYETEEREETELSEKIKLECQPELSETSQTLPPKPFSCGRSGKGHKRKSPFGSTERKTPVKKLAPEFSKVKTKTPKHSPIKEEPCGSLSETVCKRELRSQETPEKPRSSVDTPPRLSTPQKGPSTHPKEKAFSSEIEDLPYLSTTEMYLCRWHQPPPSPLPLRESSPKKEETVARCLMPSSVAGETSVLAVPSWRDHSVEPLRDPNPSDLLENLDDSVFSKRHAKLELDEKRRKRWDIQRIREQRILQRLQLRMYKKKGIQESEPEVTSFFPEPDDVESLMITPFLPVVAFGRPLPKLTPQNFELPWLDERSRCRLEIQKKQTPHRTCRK
# UniProt Q96DH6: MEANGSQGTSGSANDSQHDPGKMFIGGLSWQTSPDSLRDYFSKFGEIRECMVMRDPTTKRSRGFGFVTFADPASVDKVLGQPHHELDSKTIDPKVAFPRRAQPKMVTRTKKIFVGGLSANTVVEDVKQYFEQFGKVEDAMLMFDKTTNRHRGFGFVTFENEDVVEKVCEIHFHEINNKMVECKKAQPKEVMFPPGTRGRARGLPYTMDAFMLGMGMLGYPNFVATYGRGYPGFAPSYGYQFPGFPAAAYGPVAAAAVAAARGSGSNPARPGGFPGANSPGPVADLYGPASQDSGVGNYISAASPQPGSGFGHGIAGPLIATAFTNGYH
# UniProt Q13505: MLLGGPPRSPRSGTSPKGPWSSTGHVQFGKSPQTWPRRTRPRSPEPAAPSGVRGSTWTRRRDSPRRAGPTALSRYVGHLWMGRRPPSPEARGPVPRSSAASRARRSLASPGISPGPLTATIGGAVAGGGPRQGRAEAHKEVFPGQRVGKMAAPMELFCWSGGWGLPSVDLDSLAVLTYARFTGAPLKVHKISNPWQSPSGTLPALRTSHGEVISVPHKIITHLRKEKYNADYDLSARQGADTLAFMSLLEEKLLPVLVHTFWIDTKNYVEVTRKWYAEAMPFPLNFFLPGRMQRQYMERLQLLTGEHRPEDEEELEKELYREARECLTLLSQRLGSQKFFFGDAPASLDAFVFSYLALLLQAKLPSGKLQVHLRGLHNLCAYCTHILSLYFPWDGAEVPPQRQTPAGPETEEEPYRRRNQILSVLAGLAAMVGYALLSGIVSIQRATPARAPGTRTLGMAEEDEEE
# UniProt Q9HD23: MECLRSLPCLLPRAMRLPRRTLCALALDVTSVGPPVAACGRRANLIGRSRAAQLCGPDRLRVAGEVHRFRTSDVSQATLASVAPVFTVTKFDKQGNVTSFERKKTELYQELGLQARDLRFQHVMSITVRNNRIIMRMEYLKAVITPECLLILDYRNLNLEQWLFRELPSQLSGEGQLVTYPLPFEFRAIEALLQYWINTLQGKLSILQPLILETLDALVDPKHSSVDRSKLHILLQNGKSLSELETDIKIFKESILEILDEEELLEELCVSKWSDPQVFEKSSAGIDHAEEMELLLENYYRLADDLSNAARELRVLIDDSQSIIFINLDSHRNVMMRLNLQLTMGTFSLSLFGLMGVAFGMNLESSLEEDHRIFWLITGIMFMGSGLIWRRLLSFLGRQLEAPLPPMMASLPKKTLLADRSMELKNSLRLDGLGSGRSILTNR
# UniProt P82909: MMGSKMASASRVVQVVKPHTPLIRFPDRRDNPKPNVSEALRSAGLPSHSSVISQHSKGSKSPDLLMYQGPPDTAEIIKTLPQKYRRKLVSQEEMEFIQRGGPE
# UniProt P42285: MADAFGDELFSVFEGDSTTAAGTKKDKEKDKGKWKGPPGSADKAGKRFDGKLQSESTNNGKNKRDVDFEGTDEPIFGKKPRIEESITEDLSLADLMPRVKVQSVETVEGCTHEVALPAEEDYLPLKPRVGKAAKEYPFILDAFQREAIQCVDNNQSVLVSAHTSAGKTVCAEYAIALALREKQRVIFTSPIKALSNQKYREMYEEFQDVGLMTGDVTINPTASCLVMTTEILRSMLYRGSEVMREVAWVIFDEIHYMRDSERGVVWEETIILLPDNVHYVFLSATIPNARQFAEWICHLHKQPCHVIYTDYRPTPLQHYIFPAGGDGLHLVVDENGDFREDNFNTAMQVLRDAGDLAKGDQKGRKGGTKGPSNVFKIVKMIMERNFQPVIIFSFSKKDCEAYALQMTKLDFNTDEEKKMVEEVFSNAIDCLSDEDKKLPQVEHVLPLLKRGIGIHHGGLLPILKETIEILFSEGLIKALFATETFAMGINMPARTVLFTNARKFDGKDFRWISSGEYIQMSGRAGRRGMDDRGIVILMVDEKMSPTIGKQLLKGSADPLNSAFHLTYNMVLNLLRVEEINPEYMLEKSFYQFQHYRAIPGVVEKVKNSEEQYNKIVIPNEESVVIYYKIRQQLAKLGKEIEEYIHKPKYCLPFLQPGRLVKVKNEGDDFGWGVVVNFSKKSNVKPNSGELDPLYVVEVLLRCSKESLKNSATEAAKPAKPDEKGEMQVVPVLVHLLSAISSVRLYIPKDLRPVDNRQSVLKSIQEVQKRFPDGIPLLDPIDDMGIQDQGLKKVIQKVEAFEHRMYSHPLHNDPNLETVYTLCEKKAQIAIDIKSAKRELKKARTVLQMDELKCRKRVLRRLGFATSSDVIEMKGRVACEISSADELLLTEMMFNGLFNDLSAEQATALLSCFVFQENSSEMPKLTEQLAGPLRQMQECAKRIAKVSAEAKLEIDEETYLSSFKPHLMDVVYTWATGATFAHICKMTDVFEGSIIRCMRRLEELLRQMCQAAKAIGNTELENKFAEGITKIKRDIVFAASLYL
# UniProt Q9BTC8: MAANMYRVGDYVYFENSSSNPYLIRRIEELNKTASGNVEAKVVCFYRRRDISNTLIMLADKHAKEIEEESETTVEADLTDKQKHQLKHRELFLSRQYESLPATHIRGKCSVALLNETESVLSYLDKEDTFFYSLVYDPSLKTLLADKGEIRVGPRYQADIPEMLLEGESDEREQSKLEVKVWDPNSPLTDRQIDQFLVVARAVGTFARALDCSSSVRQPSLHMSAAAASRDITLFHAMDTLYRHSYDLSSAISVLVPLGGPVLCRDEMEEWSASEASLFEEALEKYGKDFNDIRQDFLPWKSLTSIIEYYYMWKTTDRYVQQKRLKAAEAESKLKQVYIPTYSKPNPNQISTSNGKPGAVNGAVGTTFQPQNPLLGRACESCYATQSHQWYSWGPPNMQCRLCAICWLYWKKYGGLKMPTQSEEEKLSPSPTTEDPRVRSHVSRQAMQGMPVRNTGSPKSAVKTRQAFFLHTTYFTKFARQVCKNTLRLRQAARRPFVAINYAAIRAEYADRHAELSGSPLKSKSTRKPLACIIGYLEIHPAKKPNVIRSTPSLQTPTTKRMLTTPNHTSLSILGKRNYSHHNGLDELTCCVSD
# UniProt P46199: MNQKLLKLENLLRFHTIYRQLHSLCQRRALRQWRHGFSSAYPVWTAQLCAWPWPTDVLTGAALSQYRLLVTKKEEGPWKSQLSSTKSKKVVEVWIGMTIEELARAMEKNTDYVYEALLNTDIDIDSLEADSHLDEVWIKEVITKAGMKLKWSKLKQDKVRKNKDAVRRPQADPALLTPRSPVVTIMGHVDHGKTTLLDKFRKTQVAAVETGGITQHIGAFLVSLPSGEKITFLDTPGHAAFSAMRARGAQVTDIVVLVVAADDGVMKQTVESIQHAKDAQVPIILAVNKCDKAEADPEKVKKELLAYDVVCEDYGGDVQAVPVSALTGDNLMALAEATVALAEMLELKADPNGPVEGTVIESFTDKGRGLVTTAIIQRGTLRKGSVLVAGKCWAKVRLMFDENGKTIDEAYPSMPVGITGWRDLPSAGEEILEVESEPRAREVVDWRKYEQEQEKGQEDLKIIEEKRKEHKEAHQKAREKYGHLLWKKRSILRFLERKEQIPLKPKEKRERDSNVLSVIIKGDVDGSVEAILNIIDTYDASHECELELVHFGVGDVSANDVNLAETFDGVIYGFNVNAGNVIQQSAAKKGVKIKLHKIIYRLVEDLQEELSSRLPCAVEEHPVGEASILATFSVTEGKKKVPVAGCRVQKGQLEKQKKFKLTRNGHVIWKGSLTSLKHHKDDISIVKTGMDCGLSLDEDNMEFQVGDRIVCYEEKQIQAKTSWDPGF
# UniProt Q13330: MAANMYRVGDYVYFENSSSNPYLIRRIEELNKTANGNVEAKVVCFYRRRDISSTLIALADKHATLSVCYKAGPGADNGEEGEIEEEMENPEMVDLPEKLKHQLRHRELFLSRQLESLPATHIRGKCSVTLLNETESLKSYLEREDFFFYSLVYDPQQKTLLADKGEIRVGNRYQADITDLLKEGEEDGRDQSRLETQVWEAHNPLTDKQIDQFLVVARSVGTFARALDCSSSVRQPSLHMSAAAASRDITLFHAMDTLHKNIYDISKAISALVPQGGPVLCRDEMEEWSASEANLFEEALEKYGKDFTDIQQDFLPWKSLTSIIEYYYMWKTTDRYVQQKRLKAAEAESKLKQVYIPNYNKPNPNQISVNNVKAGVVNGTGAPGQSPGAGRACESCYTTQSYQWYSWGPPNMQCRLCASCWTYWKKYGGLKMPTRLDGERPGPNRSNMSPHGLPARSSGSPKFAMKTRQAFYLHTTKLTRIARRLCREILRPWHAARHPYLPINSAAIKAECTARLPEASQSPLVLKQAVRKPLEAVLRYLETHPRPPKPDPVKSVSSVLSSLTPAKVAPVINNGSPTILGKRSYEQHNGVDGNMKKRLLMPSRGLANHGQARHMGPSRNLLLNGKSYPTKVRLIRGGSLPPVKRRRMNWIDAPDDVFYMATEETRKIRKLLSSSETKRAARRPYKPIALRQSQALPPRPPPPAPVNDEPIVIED
# Some of the results follow.
# Tests used:
# Assay in all cases: log2 fold change, soluble protein after heating vs DMSO (PISA); higher = thermal stabilisation; K562 lysate, 10 uM; active = over 0.2 and 3.5 SD of the protein, either way, in both replicates (recomputed)
# [1] = compound: CS(=O)(=O)CCNCc1ccc(-c2ccc3ncnc(Nc4ccc(OCc5cccc(F)c5)c(Cl)c4)c3c2)o1 [lapatinib]
# How it was run: (§1)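 A 30 min treatment with 10 μM compound was applied to crude K562 extract at 1 mg/mL protein in PBS pH 7.4 with 1 mM MgCl2. Heating for 3 min spanned 48°C-58°C, after which aliquots were pooled, adjusted to 0.5% NP-40 at 4°C and spun at 21,000xg for 90 min. TMTpro 16plex LC-MS/MS of the supernatant, with channel sums equalised, gave values recorded as log-two fold change in thermal stability against solvent controls, from duplicates.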
# [2] = compound: CS(=O)(=O)N1CCN(Cc2cc3nc(-c4cccc5[nH]ncc45)nc(N4CCOCC4)c3s2)CC1 [pictilisib]
# How it was run: as §1
# [3] = compound: C[C@@H](Oc1cc(-c2cnn(C3CCNCC3)c2)cnc1N)c1c(Cl)ccc(F)c1Cl [crizotinib]
# How it was run: as §1
# [4] = compound: C[C@H](C1=CC=C(C=C1)C(=O)NC2=C3C=CNC3=NC=C2)N
# How it was run: as §1
# [5] = compound: C[C@H](Nc1ncnc2nc[nH]c12)c1cc2cccc(Cl)c2c(=O)n1-c1ccccc1 [duvelisib]
# How it was run: as §1
# [6] = compound: Cc1cc(Nc2cc(CN3CCOCC3)c3nc(C)c(Cc4ccc(Cl)cc4F)n3n2)n[nH]1 [gandotinib]
# How it was run: as §1
# [7] = compound: Cc1cc(Nc2cc(N3CCN(C)CC3)nc(Sc3ccc(NC(=O)C4CC4)cc3)n2)n[nH]1 [tozasertib]
# How it was run: as §1
# [8] = compound: Cc1ccc(-n2nc(C(C)(C)C)cc2NC(=O)Nc2ccc(OCCN3CCOCC3)c3ccccc23)cc1 [doramapimod]
# How it was run: as §1
# [9] = compound: Cc1ccc(NC(=O)c2ccc(CN3CC[C@H](N(C)C)C3)c(C(F)(F)F)c2)cc1Nc1nccc(-c2cncnc2)n1 [bafetinib]
# How it was run: as §1
# [10] = compound: Cc1cccc(CC(=O)N2CCc3c2ccc(-c2cn(C)c4ncnc(N)c24)c3F)n1
# How it was run: as §1
# [11] = compound: Cc1cn(-c2cc(NC(=O)c3ccc(C)c(Nc4nccc(-c5cccnc5)n4)c3)cc(C(F)(F)F)c2)cn1 [nilotinib]
# How it was run: as §1
# [12] = compound: Cc1nc(Nc2n[nH]c3c2CN(C(=O)N[C@H](CN(C)C)c2ccccc2)C3(C)C)c2sccc2n1
# How it was run: as §1
# [13] = compound: Cc1nc(Nc2ncc(C(=O)Nc3c(C)cccc3Cl)s2)cc(N2CCN(CCO)CC2)n1 [dasatinib]
# How it was run: as §1
# [14] = compound: Cc1ncc(-c2ccnc(Nc3ccc(S(C)(=O)=O)cc3)n2)n1C(C)C
# How it was run: as §1
# [15] = compound: Cn1cc(-c2ccc3c(c2)CCN3C(=O)Cc2cccc(C(F)(F)F)c2)c2c(N)ncnc21
# How it was run: as §1
# [16] = compound: Cn1cc(CNCC2CCN(c3ncc(C(=O)NO)cn3)CC2)c2ccccc21 [quisinostat]
# How it was run: as §1
# [17] = compound: Cn1cncc1[C@@](N)(c1ccc(Cl)cc1)c1ccc2c(c1)c(-c1cccc(Cl)c1)cc(=O)n2C [tipifarnib]
# How it was run: as §1
# [18] = compound: NC(=O)Nc1cc(-c2cccc(F)c2)sc1C(=O)N[C@H]1CCCNC1
# How it was run: as §1
# [19] = compound: NC(=O)c1cnc(N[C@@H]2CCCC[C@@H]2N)nc1Nc1cccc(-n2nccn2)c1
# How it was run: as §1
# [20] = compound: NC1(c2ccc(-c3nc4ccn5c(=O)[nH]nc5c4cc3-c3ccccc3)cc2)CCC1
# How it was run: as §1
Target,log2 fold change [1],log2 fold change [2],log2 fold change [3],log2 fold change [4],log2 fold change [5],log2 fold change [6],log2 fold change [7],log2 fold change [8],log2 fold change [9],log2 fold change [10],log2 fold change [11],log2 fold change [12],log2 fold change [13],log2 fold change [14],log2 fold change [15],log2 fold change [16],log2 fold change [17],log2 fold change [18],log2 fold change [19],log2 fold change [20]
MT-ND5 (UniProt P03915),inactive: -0.018,inactive: 0.227,inactive: -0.045,inactive: 0.058,inactive: -0.055,inactive: -0.082,inactive: -0.057,inactive: -0.044,inactive: 0.051,inactive: 0.048,inactive: 0.058,inactive: 0.056,inactive: 0.061,inactive: -0.026,inactive: 0.005,inactive: 0.019,inactive: 0.016,inactive: -0.018,inactive: -0.026,inactive: 0
MTHFR isoform 2 (UniProt P42898),inactive: -0.037,inactive: 0,inactive: -0.005,inactive: -0.03,inactive: 0.029,inactive: -0.025,inactive: 0.005,inactive: 0.018,inactive: -0.064,inactive: 0.059,inactive: 0.019,inactive: 0.019,inactive: -0.031,inactive: -0.016,inactive: 0.009,inactive: -0.037,inactive: -0.019,inactive: 0.04,inactive: 0.004,inactive: 0.01
MSL1 (UniProt Q68DK7),inactive: -0.06,inactive: 0.026,inactive: -0.038,inactive: -0.096,inactive: 0.057,inactive: 0.108,inactive: 0.028,inactive: 0.109,inactive: 0.006,inactive: 0.074,inactive: 0.038,inactive: -0.098,inactive: 0.058,inactive: 0.005,inactive: 0.004,inactive: -0.208,inactive: 0.033,inactive: -0.03,inactive: 0.012,inactive: -0.013
MSI2 (UniProt Q96DH6),inactive: 0,inactive: -0.057,inactive: 0.036,inactive: 0.024,inactive: -0.052,inactive: -0.031,inactive: 0.01,active: -0.23,inactive: -0.066,inactive: 0.07,inactive: -0.089,inactive: 0.011,inactive: 0.01,inactive: 0.009,inactive: 0.049,inactive: 0.023,inactive: -0.057,inactive: 0.029,inactive: 0.028,inactive: -0.016
MRPL28 (UniProt Q13084),inactive: -0.046,inactive: 0.03,inactive: -0.08,active: 0.482,inactive: 0.043,inactive: -0.246,inactive: 0.059,inactive: -0.012,inactive: -0.04,inactive: -0.228,inactive: 0.03,inactive: -0.111,inactive: -0.013,inactive: -0.037,inactive: 0.051,inactive: -0.031,inactive: 0.149,inactive: 0.057,inactive: 0.015,inactive: -0.058
MTX1 (UniProt Q13505),inactive: 0.001,inactive: -0.04,inactive: -0.014,inactive: -0.026,inactive: 0.01,inactive: 0.037,inactive: 0.022,inactive: -0.006,inactive: 0.018,inactive: 0.043,inactive: -0.008,inactive: -0.039,inactive: 0.03,inactive: 0.007,inactive: -0.031,inactive: 0.039,inactive: -0.014,inactive: -0.007,inactive: -0.02,inactive: 0.023
MRPS31 (UniProt Q92665),inactive: 0.012,inactive: 0.012,inactive: -0.02,inactive: -0.002,inactive: -0.015,inactive: -0.006,inactive: 0.033,inactive: 0.047,inactive: -0.009,inactive: 0.051,inactive: -0.005,inactive: -0.002,inactive: -0.034,inactive: 0.034,inactive: 0.002,inactive: -0.046,inactive: 0.015,inactive: 0.022,inactive: -0.026,inactive: -0.014
MRPL48 (UniProt Q96GC5),inactive: -0.018,inactive: -0.044,inactive: -0.047,inactive: 0.017,inactive: -0.033,inactive: -0.115,inactive: -0.013,inactive: 0.022,inactive: 0.048,inactive: 0.023,inactive: 0.046,inactive: -0.088,inactive: -0.028,inactive: -0.022,inactive: 0.028,inactive: -0.009,inactive: 0.002,inactive: -0.007,inactive: -0.019,inactive: -0.025
MRS2 (UniProt Q9HD23),inactive: -0.014,inactive: -0.01,inactive: 0.041,inactive: 0.012,inactive: -0.013,inactive: -0.042,inactive: 0.002,inactive: -0.001,inactive: 0.059,inactive: 0.012,inactive: -0.046,inactive: 0.056,inactive: -0.01,inactive: 0.005,inactive: 0.053,inactive: 0.005,inactive: -0.027,inactive: 0.01,inactive: 0.005,inactive: 0.015
MT-ND1 (UniProt P03886),inactive: -0.025,inactive: -0.03,inactive: -0.062,active: -0.342,inactive: -0.052,inactive: 0.061,inactive: -0.074,inactive: 0.041,inactive: 0.022,inactive: 0.007,inactive: -0.054,inactive: 0.005,inactive: 0.018,inactive: -0.074,inactive: 0.035,inactive: -0.094,inactive: -0.125,inactive: 0.033,inactive: -0.024,inactive: -0.059
MRPL30 isoform 2 (UniProt Q8TCC3),inactive: 0.03,inactive: -0.029,inactive: -0.094,active: 0.746,inactive: 0.068,active: -0.373,inactive: 0.158,inactive: 0.013,inactive: 0.043,active: -0.458,inactive: -0.048,inactive: -0.066,inactive: -0.038,inactive: 0.047,inactive: 0.03,inactive: -0.13,inactive: 0.052,inactive: -0.007,inactive: 0,inactive: 0.039
MRPS36 (UniProt P82909),inactive: 0.095,inactive: -0.024,inactive: -0.043,inactive: -0.162,inactive: 0,inactive: 0.063,inactive: -0.039,inactive: 0.048,inactive: 0.033,inactive: 0.038,inactive: 0.029,inactive: -0.021,inactive: 0.238,inactive: 0.1,inactive: -0.003,inactive: -0.133,inactive: -0.006,inactive: -0.019,inactive: -0.049,inactive: -0.012
MTREX (UniProt P42285),inactive: -0.007,inactive: -0.014,inactive: -0.021,inactive: -0.014,inactive: -0.011,inactive: 0.034,inactive: 0.001,inactive: 0.013,inactive: 0.009,inactive: 0.036,inactive: -0.001,inactive: -0.002,inactive: -0.002,inactive: -0.002,inactive: 0.017,inactive: 0.006,inactive: 0.007,inactive: 0.011,inactive: 0,inactive: 0.004
MTA3 (UniProt Q9BTC8),inactive: 0.006,inactive: 0.026,inactive: -0.058,inactive: -0.022,inactive: 0.001,inactive: -0.013,inactive: -0.008,inactive: 0.002,inactive: -0.048,inactive: 0.051,inactive: 0.034,inactive: -0.059,inactive: -0.005,inactive: -0.019,inactive: -0.017,inactive: -0.061,inactive: 0.009,inactive: 0.03,inactive: 0.005,inactive: -0.047
MTIF2 (UniProt P46199),inactive: 0.017,inactive: 0.008,inactive: -0.05,inactive: 0.055,inactive: 0.005,inactive: -0.071,inactive: -0.003,inactive: 0.022,inactive: -0.066,inactive: -0.07,inactive: -0.014,inactive: -0.019,inactive: -0.013,inactive: -0.02,inactive: 0.052,inactive: -0.075,inactive: 0.011,inactive: 0.029,inactive: 0.041,inactive: -0.066
MTA1 (UniProt Q13330),inactive: -0.002,inactive: 0,inactive: -0.008,inactive: 0.001,inactive: -0.059,inactive: -0.067,inactive: -0.002,inactive: -0.009,inactive: 0.023,inactive: 0.017,inactive: 0.042,inactive: 0.01,inactive: -0.023,inactive: 0.033,inactive: 0.005,inactive: -0.089,inactive: -0.03,inactive: 0.052,inactive: -0.033,inactive: -0.004

# Single records (already shown). Values in the order: log2 fold change [1] | log2 fold change [2] | log2 fold change [3] | log2 fold change [4] | log2 fold change [5] | log2 fold change [6] | log2 fold change [7] | log2 fold change [8] | log2 fold change [9] | log2 fold change [10] | log2 fold change [11] | log2 fold change [12] | log2 fold change [13] | log2 fold change [14] | log2 fold change [15] | log2 fold change [16] | log2 fold change [17] | log2 fold change [18] | log2 fold change [19] | log2 fold change [20]
# MRPL48 (UniProt Q96GC5) reads inactive: -0.018 | inactive: -0.044 | inactive: -0.047 | inactive: 0.017 | inactive: -0.033 | inactive: -0.115 | inactive: -0.013 | inactive: 0.022 | inactive: 0.048 | inactive: 0.023 | inactive: 0.046 | inactive: -0.088 | inactive: -0.028 | inactive: -0.022 | inactive: 0.028 | inactive: -0.009 | inactive: 0.002 | inactive: -0.007 | inactive: -0.019 | inactive: -0.025
# MTA1 (UniProt Q13330) reads inactive: -0.002 | inactive: 0 | inactive: -0.008 | inactive: 0.001 | inactive: -0.059 | inactive: -0.067 | inactive: -0.002 | inactive: -0.009 | inactive: 0.023 | inactive: 0.017 | inactive: 0.042 | inactive: 0.01 | inactive: -0.023 | inactive: 0.033 | inactive: 0.005 | inactive: -0.089 | inactive: -0.03 | inactive: 0.052 | inactive: -0.033 | inactive: -0.004
